Sequences and labels used below:
B1: il2ra_site1_2b5i_sap_13_mot_HHH_b1_00983_000000007_0001_1_17_H_._HHH_b1_06195_0001_0000800024_0000001_0_0001 (protein)
chain: SSSSNRAREILFEAARESVEEAEEEGDEETLEKLYEEIRRYLELHGSELLKELLEHIEKLLSSSS
B2: il2ra_site2_3nfp_normal_mot_HHH_b2_05976_000000001_0001_22_38_H_._HHH_b2_06641_0001_0000100007_0000001_1 (protein)
chain: SSSSDVEERVEELLQEAERLLEEGNPEEARKLVREAALLAAEARDHELFALVQEVLHKIVNSSSS
B3: il2ra_site1_2b5i_sap_13_mot_143f78fc0439b137266e145e81963a82_0001_1_af2_000000250_0001_37_51_H_._0e4f66a3c4b070984708d3e1d5382b02_0001_1_af2_0001_0000200006_000 … (protein)
chain: SSSSAREEVERLIKEAKELLEQGKLREALKKLEEALKVAAAAEDEELYEEVEKLAEEALKSSSSS
B4: il2ra_site1_3nfp_sap_9_mot_HHH_b1_01335_af2_000000258_0001_39_53_H_._HHH_b2_03358_0001_0000500034_0000001_0_0001 (protein)
chain: SSSSNEAMRLVQEALRLARRHDDHEASQELYRLIHEALRKGDPELLREARELAEEIIEELGSSSS
B5: il2ra_site1_3nfp_normal_mot_HHH_b2_03857_af2_000000084_0001_42_56_H_._HHH_b2_02902_0001_0000400015_0000001_0_af2pred_0001_af2pred (protein)
chain: SSSSSREEAEEVIKLLRLLEKLLIEGDEEKVEEVREELEKLIKELNSRSAELYLRLLEERHSSSS
B6: il2ra_site2_2erj_normal_mot_HHH_b1_08609_af2_000000264_0001_43_56_H_._HHH_b2_06230_af2_0001_0000200028_0000001_0 (protein)
chain: SSSSNEELKEIFKLADALLEAIQNNDEELFEKIYEEAEKLIEESNTENAEEILRWLERHFNSSSS
B7: il2ra_site1_1z92_sap_11_mot_HHH_b2_00249_af2_000000052_0001_39_52_H_._HHH_b2_00616_af2_0001_0000400013_0000001_1_0001_af2pred_0001_af2pred (protein)
chain: SSSSSEKRKEALELFEEANELFKRGNDEEAQELLRRALELAEEAGNRVLARAIEQALEDAESSSS
B8: il2ra_site2_2erj_sap_25_mot_HHH_b1_00821_000000158_0001_1_20_H_._HHH_b2_03062_af2_0001_0000100003_0000001_0_0001 (protein)
chain: SSSSNEELRELYRLLVEALRLLTEGNPEKAEEVLREAEELAERLGSDNAKEAIEQLKKLVRSSSS
B9: il2ra_site1_3nfp_sap_10_mot_922575b2e9738a49cb663a995786872c_0001_af2_000000130_0001_1_15_H_._HHH_b1_08594_0001_0000300023_0000001_0_0001_af2pred_0001_af2pred (protein)
chain: SSSSDILREIIKLEKELREALKNENEEKARELLEELRRLIEEANDPVARRILEIAQKKVEKSSSS
B10: il2ra_site2_3nfp_normal_mot_HHH_b1_04997_af2_000000181_0001_40_57_H_._HHH_b1_02356_0001_0000700006_0000001_0 (protein)
chain: SSSSSSDEESFEYAKAAAILAGDEELLKEVEELEERYRQEGDPEYQRLVARLALEIAFSSSSSSS
B11: il2ra_site2_3nfp_sap_25_mot_ems_3hM_287_af2_000000177_0001_46_64_H_._HHH_b1_07095_0001_0000400043_0000001_0_0001 (protein)
chain: SSSSDEAREEVEKLVEQAEELLKRGNPEEARKALAEAAHIAFENNDFEAFAAVAELLNEILSSSS
B12: il2ra_site1_1z92_normal_mot_HHH_b1_05003_000000111_0001_1_20_H_._HHH_b2_04319_af2_0001_0000300020_0000001_0_af2pred_dldesign_0_af2pred (protein)
chain: SSSSPRQELYQLLLELNKALQAGNKEEFEKLLKKATELAEKLESKVVLKLLEKAKEQLEEESSSS
B13: il2ra_site1_3nfp_normal_mot_HHH_b1_04560_000000028_0001_23_40_H_._HHH_b2_04432_0001_0000500008_0000001_1 (protein)
chain: SSSSSDLEAAQEAYKLLREALKISDEEEVEELLRRALELLEEAGDERNLKSLHKAVEHFNSSSSS
B14: il2ra_site2_3nfp_normal_mot_HHH_b1_05627_af2_000000038_0001_43_56_H_._HHH_b2_07596_0001_0000200026_0000001_0 (protein)
chain: SSSSSKQEEYLRAALEVLREAFEFGDRESFEKQAEAARELAEALNDPEVLEEVEELLRELSSSSS
B15: il2ra_site2_3nfp_normal_mot_HHH_b1_04338_af2_000000107_0001_41_56_H_._HHH_b2_06761_0001_0000400039_0000001_0 (protein)
chain: SSSDESEEIFERAEKELRRLLEEGNREEASQLTFEAAHELKELGDDRLVLKLYAILQRALFSSSS
B16: il2ra_site1_2b5i_normal_mot_d4f58537f9d5e1f361f6ea2252377c33_0001_1_000000167_0001_1_13_H_._HHH_b1_03920_0001_0000100001_0000001_0 (protein)
chain: SSSSDALERLAKNIFEILEKALELGNEKAIERWLEMLERQAEDTNDELARELLREIREKLSSSSS
B17: il2ra_site1_2b5i_sap_15_mot_HHH_eva_0271_af2_000000019_0001_1_17_H_._b0be08dbeb19038e97ce33ab5425b229_0001_af2_0001_0000200010_0000001_0_0001_af2pred_dldesign_0 … (protein)
chain: SSSSNPLAEEARRLFLKANELYQAGKEEEAKELLKKALEIAKKGKCNSLIKAIELALKNLSSSSS
B18: il2ra_site2_3nfp_sap_22_mot_HHH_b1_07242_000000112_0001_19_39_H_._dbaaacb3030748eb94c4e142aa50db7a_0001_0001_0000400037_0000001_0_0001_af2pred_0001_1_af2pred_sw … (protein)
chain: SSSDEEERIRELLKEIEELLKEGNDEEAEELLKEAKKLIRELGDLELLEELLELEELVEEKSSSS
B19: il2ra_site2_3nfp_sap_18_mot_HHH_b2_04503_af2_000000107_0001_38_55_H_._HHH_b1_05537_0001_0000700018_0000001_0_0001 (protein)
chain: SSSSDKQEEYIRIAIEIARRAAEQGDPEVARRILETVFQAAEDANDEELLKEIEELLEELSSSSS
B20: il2ra_site1_1z92_normal_mot_HHH_b1_03515_000000289_0001_1_19_H_._HHH_b2_05697_0002_0000300039_0000001_0_af2pred_0001_af2pred_1 (protein)
chain: SSSSNERLERQLKKLVESAVELAGLSEEQKEELEELAKELAERGVDFEEAIRIVNKLALELSSSS
B21: il2ra_site2_3nfp_normal_mot_HHH_b2_05281_000000198_0001_39_56_H_._HHH_b2_06891_0001_0000100001_0000001_0 (protein)
chain: SSSSSSRERVEELLRQAEELYERGNPEEAQKLLKEATHIAYETGDHEAFFLVAEVAFRLINSSSS
B22: il2ra_site2_3nfp_sap_17_mot_HHH_b2_03978_000000149_0001_1_20_H_._HHH_b2_01702_0001_0000500046_0000001_0_0001_af2pred_0001_af2pred (protein)
chain: SSSSSDQEVRELLEEARELLEEGDPEEAEEVLLRAAEIAAELRNFELFAEVANLLEEILRSSSSS
B23: il2ra_site2_3nfp_sap_14_mot_HHH_b1_04980_af2_000000126_0001_22_39_H_._HHH_b2_07179_0001_0000200006_0000001_1_0001_af2pred_0001_1_af2pred_swapped (protein)
chain: SSSSSEEEERVEELIEKAEKLIKEGNPEEAEEVLAEAFRLALELNNEELLLLILELLERLRSSSS
B24: il2ra_site1_2b5i_sap_14_mot_HHH_b2_07920_000000157_0001_21_37_H_._HHH_b1_06326_0001_0000100002_0000001_0_0001_af2pred_dldesign_0_af2pred (protein)
chain: SSSSSIRKLIEYAKKEAEELLAEGDTEDVQNILAQLQELRDKYNDPEIEKAIAELTAALLGSSSS

The list shows a part of the results.

This assay deals with il2ra, P01589. Put plainly: yeast display titration.
For B1, the “apparent Kd” value is “inactive: no binding seen”.

With B2, the “apparent Kd” value was “inactive: no binding seen”.

B3: the “apparent Kd” value is “inactive: no binding seen”.

B4: the “apparent Kd” value is “inactive: no binding seen”.

As to B5, the “apparent Kd” value is “inactive: no binding seen”.

B6: the “apparent Kd” value was “inactive: no binding seen”.

Regarding B7, the “apparent Kd” value is “inactive: no binding seen”.

Turning to B8, the “apparent Kd” value was “inactive: no binding seen”.

As for B9, the “apparent Kd” value was “inactive: no binding seen”.

For the molecule B10, the “apparent Kd” value was “inactive: no binding seen”.

In the case of B11, the “apparent Kd” value was “inactive: no binding seen”.

For B12, the “apparent Kd” value is “inactive: no binding seen”.

Turning to B13, the “apparent Kd” value was “inactive: no binding seen”.

In the case of B14, the “apparent Kd” value is “inactive: no binding seen”.

As to B15, the “apparent Kd” value is “inactive: no binding seen”.

Consider B16, for which the “apparent Kd” value was “inactive: no binding seen”.

Take B17: the “apparent Kd” value is “inactive: no binding seen”.

In the case of B18, the “apparent Kd” value is “inactive: no binding seen”.

With B19, the “apparent Kd” value was “inactive: no binding seen”.

On to B20, for which the “apparent Kd” value was “inactive: no binding seen”.

As to B21, the “apparent Kd” value was “inactive: no binding seen”.

For the molecule B22, the “apparent Kd” value was “inactive: no binding seen”.

As to B23, the “apparent Kd” value is “inactive: no binding seen”.

With B24, the “apparent Kd” value is “inactive: no binding seen”.
